According to PubChem BioAssay AID540256 (National Center for Advancing Translational Sciences (NCATS), 2011):
About 3,700 (1.2%) of roughly 300,000 compounds were called active. The inconclusive results got no clear call from the source; some entries with a clear call stand among them for comparison. The call rests on the fitted dose curve; tested in HEK293 cells. A potency beside an inconclusive call is a rough fit, not a confirmed value.

Assay: qHTS for Inhibitors of binding or entry into cells for Lassa Virus; further: nearly all actives have a fitted effect of over 50% in size
Conditions: Lassa virus pseudotype entry inhibition, cell reporter; series mostly up to 37.9 µM
Potency means the concentration at half of the fitted maximal effect.

SMILES	Potency
N#CC1=C(SCc2ccccc2)NC(=O)CC1c1ccco1 (stereo not given)	inactive
COc1cccc(-n2cnc3c(NN=Cc4ccncc4)ncnc32)c1	inconclusive: 0.0397 µM [inhibitor, full curve, poor fit]
Cn1ccnc1SCC(=O)Nc1ccc2ccccc2c1	inconclusive: 7.3 µM [inhibitor, partial curve]
CCC(C)NC(=O)C1c2ccccc2C(=O)N(c2ccc(OC)cc2)C1c1ccc(OC)cc1 (stereo not given)	inconclusive: 20.6 µM [inhibitor, partial curve, poor fit]
C=CCOc1ccc(/C=C/C(=O)OCC(=O)NCc2cccs2)cc1	inactive
N#CC(C(=O)NC1CC1)c1nc2ccccc2nc1N1CCN(C/C=C/c2ccccc2)CC1 (stereo not given)	inconclusive: 3.16 µM [activator, partial curve, poor fit]
CCc1ccc(OCCNC(=O)c2cccs2)cc1	inactive
COC(CNC(=O)C(=O)NCC1OCCN1S(=O)(=O)c1ccccc1)OC (stereo not given)	inconclusive: 1.26 µM [inhibitor, single point]
Cc1cc(C)cc(-c2nnc(SCC(=O)Nc3cc(C)on3)o2)c1	inactive
NS(=O)(=O)c1ccc(NC(=S)NCC2CCCO2)cc1 (stereo not given)	inactive
CCCCn1c(NCc2ccccc2NS(=O)(=O)c2ccc(C)cc2)nc2ccccc21	inconclusive: 12.6 µM [inhibitor, partial curve, poor fit]
COc1ccc(/C=C/c2ccc3c(Br)ccc(O)c3n2)cc1	inactive
Cc1nc(SCC(=O)NCCc2ccccc2)c2c(=O)n(C)c(=O)n(C)c2n1	inactive
COc1cc(C(=S)N2CCOCC2)ccc1OS(=O)(=O)c1ccc(NC(C)=O)cc1	inconclusive: 29.1 µM [inhibitor, partial curve, poor fit]
O=C1N/C(=C\c2ccc(O)cc2)C(O)=C1C=NCc1ccccc1	inconclusive: 11.6 µM [inhibitor, partial curve, poor fit]
C/C(=N\NC(=O)Nc1ccccc1)c1ccc2ccccc2c1	inconclusive: 3.16 µM [inhibitor, partial curve, poor fit]
CCCC(=O)NCn1nnc(-c2ccc(Cl)cc2)n1	inconclusive: 0.398 µM [inhibitor, partial curve, poor fit]
COc1ccc(-c2cn[nH]c2-c2ccc(OCc3ccccc3)cc2O)cc1	active: 3.55 µM
Cc1ccc2oc(C(=O)N(Cc3ccc(N(C)C)cc3)CC3CCCO3)c(C)c2c1 (stereo not given)	inactive
CC(=NNC(=S)SCc1ccccc1)c1ccccn1	active: 1.58 µM
COc1ccc(OC)c(CN2CCN(S(=O)(=O)c3ccccc3)CC2)c1	inconclusive: 25.1 µM [inhibitor, single point]
Cc1cccc(COCC(CC(C)C)N2CCN(C(=O)c3ccc(C(C)(C)C)cc3)CCC2=O)c1 (stereo not given)	inconclusive: 3.66 µM [inhibitor, partial curve, poor fit]
O=C(c1ccco1)N1CCN(C(=O)c2[nH]ncc2[N+](=O)[O-])CC1	inconclusive: 0.794 µM [activator, single point]
Cc1ccccc1-c1ccnc2[nH]n(-c3ccccc3)c(=O)c12	inactive

SMILES	Potency
CC(NC(=O)CSc1nnc(-c2cccc(S(=O)(=O)N3CCCCC3)c2)o1)C12CC3CC(CC(C3)C1)C2 (stereo not given)	inconclusive: 12.6 µM [inhibitor, partial curve, poor fit]
Cc1nonc1NC(=O)CSc1nc2ccccc2[nH]1	inconclusive: 1.26 µM [inhibitor, partial curve, poor fit]
O=C(OCn1nnc2ccccc2c1=O)C1=COCCO1	inconclusive: 0.164 µM [activator, single point]
CCOc1ccc(NC(=O)c2sc3nc4c(c(-c5ccccc5)c3c2N)C(=O)CC(C)(C)C4)cc1	inconclusive: 22.4 µM [inhibitor, single point]
C#CCOC(=O)C1=CCCN(C)C1	inconclusive: 20.6 µM [inhibitor, single point]
CN(C(=O)/C=C/c1cnc2ccccc2c1)C1CCCCC1	inconclusive: 14.1 µM [inhibitor, single point]
CCCn1c2ccccc2c2cnn(CC(=O)NCCCN3CCCCC3)c(=O)c21	inactive
COc1ccc(/C=N/NC(=O)c2cc(-c3ccc(C)cc3C)nc3ccccc23)cc1COC(C)=O	inconclusive: 10 µM [inhibitor, single point]
O=C(NCCc1ccccc1)c1ccc2nc(N3CCCCC3)sc2c1	inactive
O=C(CC(c1ccccc1)C1CCCCC1=O)c1ccccc1 (stereo not given)	inactive
O=C1CSC2(C(=O)N(Cc3ccccc3F)c3ccccc32)N1c1cccc(C(F)(F)F)c1 (stereo not given)	inconclusive: 1.12 µM [activator, partial curve, poor fit]
CC(=O)NC(=S)Nc1ccc(NC(=O)COc2ccc(C(C)C)cc2)cc1	inconclusive: 32.6 µM [inhibitor, partial curve, poor fit]
COc1ccc(CCNc2cc(C)nc3c(-c4ccccc4OC)cnn23)cc1OC	inactive
CC(=O)Nc1ccc(NC(=O)CSc2nccn2Cc2ccc3c(c2)OCO3)cc1	inactive
COc1ccccc1NC(=O)c1cn(CCC#N)nc1-c1ccc(F)cc1	inactive
Cc1ccc(NS(=O)(=O)c2ccc(-c3cnc(C4CC4)o3)cc2)cc1N(C)C	inconclusive: 17.8 µM [inhibitor, partial curve, poor fit]
CCOC(=O)NC(=O)/C(C#N)=C(/C)N(C)C	inactive
CCOC(=O)C1=C(C)S/C(=C\N(C)C)C1=O	inconclusive: 5.62 µM [activator, partial curve, poor fit]
Cc1cc(C)cc(NC(=O)C(OC(=O)Cn2cnc3c2c(=O)n(C)c(=O)n3C)c2ccccc2)c1 (stereo not given)	inconclusive: 0.562 µM [activator, single point]
CC(=O)Nc1ccc(S(=O)(=O)N2CCN=C2SCc2ccccc2C)cc1	inconclusive: 7.94 µM [inhibitor, single point]
COc1ccc(-c2cc(C(=O)Oc3ccc(C)cc3)c3ccccc3n2)cc1	inactive
CCc1ccc(OCCCOc2ccc(C=O)cc2)cc1	inactive
COc1ccc(Nc2ncc3c(n2)CC(c2ccc(C)cc2)CC3=O)cc1 (stereo not given)	active: 0.231 µM
CCOC(=O)CNC(=S)N(CCCN1CCCCCC1)Cc1cccs1	inactive

A draw from above in order of SMILES length, smallest number first:
SMILES	Potency
CC(=NNC(=S)SCc1ccccc1)c1ccccn1	active: 1.58 µM
CCOC(=O)NC(=O)/C(C#N)=C(/C)N(C)C	inactive
O=C(CC(c1ccccc1)C1CCCCC1=O)c1ccccc1 (stereo not given)	inactive
CN(C(=O)/C=C/c1cnc2ccccc2c1)C1CCCCC1	inconclusive: 14.1 µM [inhibitor, single point]
COc1ccc(/C=C/c2ccc3c(Br)ccc(O)c3n2)cc1	inactive
O=C(NCCc1ccccc1)c1ccc2nc(N3CCCCC3)sc2c1	inactive
Cc1ccccc1-c1ccnc2[nH]n(-c3ccccc3)c(=O)c12	inactive
COc1ccccc1NC(=O)c1cn(CCC#N)nc1-c1ccc(F)cc1	inactive
COc1ccc(Nc2ncc3c(n2)CC(c2ccc(C)cc2)CC3=O)cc1 (stereo not given)	active: 0.231 µM
COc1ccc(-c2cc(C(=O)Oc3ccc(C)cc3)c3ccccc3n2)cc1	inactive
CC(=O)Nc1ccc(NC(=O)CSc2nccn2Cc2ccc3c(c2)OCO3)cc1	inactive
O=C(c1ccco1)N1CCN(C(=O)c2[nH]ncc2[N+](=O)[O-])CC1	inconclusive: 0.794 µM [activator, single point]
Cc1ccc(NS(=O)(=O)c2ccc(-c3cnc(C4CC4)o3)cc2)cc1N(C)C	inconclusive: 17.8 µM [inhibitor, partial curve, poor fit]
COc1cc(C(=S)N2CCOCC2)ccc1OS(=O)(=O)c1ccc(NC(C)=O)cc1	inconclusive: 29.1 µM [inhibitor, partial curve, poor fit]
O=C1CSC2(C(=O)N(Cc3ccccc3F)c3ccccc32)N1c1cccc(C(F)(F)F)c1 (stereo not given)	inconclusive: 1.12 µM [activator, partial curve, poor fit]
Cc1cccc(COCC(CC(C)C)N2CCN(C(=O)c3ccc(C(C)(C)C)cc3)CCC2=O)c1 (stereo not given)	inconclusive: 3.66 µM [inhibitor, partial curve, poor fit]
CCOc1ccc(NC(=O)c2sc3nc4c(c(-c5ccccc5)c3c2N)C(=O)CC(C)(C)C4)cc1	inconclusive: 22.4 µM [inhibitor, single point]

Continuation.

SMILES	Potency
COC(=O)C1CCN(C2CN(Cc3cn(Cc4ccc(C(F)(F)F)cc4)nn3)S(=O)(=O)C2)CC1 (stereo not given)	inconclusive: 1.41 µM [inhibitor, full curve, poor fit]
CCCC(=O)NCc1cc(-c2nn(C)c(=O)c3ccccc23)ccc1OC	inconclusive: 2 µM [inhibitor, full curve]
CC/C(=N\Nc1nncc2ccccc12)c1ccc(F)cc1	inconclusive: 11.2 µM [inhibitor, partial curve, poor fit]
Cc1ccc(NC(=O)Cn2nnc(C(=O)Nc3ccc(C)c(C)c3)c2N)cc1	inconclusive: 6.51 µM [activator, full curve, poor fit]
COCC(=O)NNC(=O)c1ccccc1OC	inactive
Cc1cnc(NC(=O)c2cc3c(s2)CCCC3)s1	inconclusive: 14.1 µM [inhibitor, partial curve, poor fit]
COc1ccc(/C=N/NC(=O)c2[nH]ncc2Br)c(OC)c1	inconclusive: 1.46 µM [activator, full curve, poor fit]
COc1cc(C(NC(=O)C(F)(F)F)c2cc3ccccc3o2)cc(OC)c1OC (stereo not given)	inconclusive: 0.0376 µM [inhibitor, full curve, poor fit]
CCSc1nnc(NC(=O)CSc2nc3c(cc2C#N)CCCC3)s1	inconclusive: 29.1 µM [inhibitor, single point]
COc1ccccc1OC(=O)c1ccc2nsnc2c1	inactive
Cc1ccc(NC(=O)CN2C(=O)COc3ccc(S(=O)(=O)N4CCCCCC4)cc32)cc1Cl	inconclusive: 22.4 µM [inhibitor, single point]
CC1S/C(=N\N=C\c2cccc([N+](=O)[O-])c2)N(C(C)(C)C)C1=O (stereo not given)	inconclusive: 35.5 µM [inhibitor, single point]
CCN(CC)S(=O)(=O)c1ccc2nc(COC(=O)c3n[nH]c4ccccc34)[nH]c2c1	inconclusive: 6.51 µM [inhibitor, single point]
CCn1c(C)nc2cc(C(=O)N/N=C/c3ccccc3)ccc21	inactive
Nc1ccc(Oc2ccc3nc(-c4ccccc4)c(-c4ccc([N+](=O)[O-])cc4)nc3c2)cc1	inconclusive: 17.8 µM [inhibitor, partial curve, poor fit]
COc1cccc(-n2sc3c(c2=S)-c2cc(OC)ccc2NC3(C)C)c1	inconclusive: 8.91 µM [inhibitor, partial curve, poor fit]
Cc1cc(C)cc(Oc2nc3ccccn3c(=O)c2/C=C(\C#N)C(=O)NC2CCS(=O)(=O)C2)c1 (stereo not given)	inconclusive: 22.4 µM [inhibitor, single point]
Cc1ccc(OCC(=O)Nc2nonc2-c2ccc(C)c(C)c2)cc1C	inactive
O=C(CCSc1ccccc1)N1CCCC1	inconclusive: 3.98 µM [inhibitor, full curve, poor fit]
Cc1ccc(N(C(=O)c2csnn2)C(C(=O)NC2CCCCC2)c2ccco2)cc1 (stereo not given)	inconclusive: 7.94 µM [inhibitor, partial curve, poor fit]
O=C1c2ccccc2NC(c2ccco2)N1O (stereo not given)	inactive
Cc1ccn2cc(-c3cccc(NS(C)(=O)=O)c3)nc2c1	inconclusive: 0.73 µM [activator, full curve, poor fit]
